Results deposited as PubChem BioAssay AID1259308 (NCATS, 2017)

Test: 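Knock-downs that increase output of a recombinant reporter protein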 (primary screen)
Cell system: human HEK293 embryonic kidney cells stably expressing firefly luciferase (HEK-CMV-Luc2-Hygro)
Reagents: single siRNA against human genes, 0.8 pmol siRNA per well
Duration: 72 h
Detection: 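Reporter luminescence and viable-cell signal on separate replicate plates, given as percent of non-targeting control and median/MAD z-scores, plus per-cell luciferase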
Reading the numbers: total luciferase, z-score and total luciferase, % of control: higher = more reporter protein produced; luciferase per cell, z-score: higher = more reporter output per viable cell
Rule for the call: 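An siRNA counts as active if its total luciferase robust z-score exceeds 3; genes with two or more such siRNAs out of three were retested with fresh siRNAs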
Calls: active = raised luciferase; inactive = no rise
The deposit covers about 59,000 reagents; shown is a part drawn at random. Over the whole deposit, about 1,510 (2.6%) were called active. 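Calls use total luciferase alone and ignore viability, so some active siRNAs may act by altering cell number.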 Reagents against one gene are numbered here. Further read-outs or replicates are left out here.

The first 7 entries, ahead of the listing:
| gene | reagent no. | total luciferase, z-score | total luciferase, % of control | luciferase per cell, z-score | Outcome |
| --- | --- | --- | --- | --- | --- |
| F2RL3 (F2R like thrombin or trypsin receptor 3) | 1 | 1.02 | 102 | 4.98 | inactive |
| F2RL3 (F2R like thrombin or trypsin receptor 3) | 2 | -1.21 | 57.9 | -1.28 | inactive |
| F2RL3 (F2R like thrombin or trypsin receptor 3) | 3 | -0.103 | 79.8 | -0.0586 | inactive |
| MRPS18C (mitochondrial ribosomal protein S18C) | 1 | -0.612 | 69.7 | -0.0192 | inactive |
| MRPS18C (mitochondrial ribosomal protein S18C) | 2 | -1.75 | 47.1 | -0.74 | inactive |
| MRPS18C (mitochondrial ribosomal protein S18C) | 3 | -0.403 | 73.9 | 1.06 | inactive |
| RANGRF (RAN guanine nucleotide release factor) | 1 | 0.387 | 89.6 | 0.154 | inactive |

The list itself, from the start:
| gene | reagent no. | total luciferase, z-score | total luciferase, % of control | luciferase per cell, z-score | Outcome |
| --- | --- | --- | --- | --- | --- |
| F2RL3 (F2R like thrombin or trypsin receptor 3) | 1 | 1.02 | 102 | 4.98 | inactive |
| F2RL3 (F2R like thrombin or trypsin receptor 3) | 2 | -1.21 | 57.9 | -1.28 | inactive |
| F2RL3 (F2R like thrombin or trypsin receptor 3) | 3 | -0.103 | 79.8 | -0.0586 | inactive |
| MRPS18C (mitochondrial ribosomal protein S18C) | 1 | -0.612 | 69.7 | -0.0192 | inactive |
| MRPS18C (mitochondrial ribosomal protein S18C) | 2 | -1.75 | 47.1 | -0.74 | inactive |
| MRPS18C (mitochondrial ribosomal protein S18C) | 3 | -0.403 | 73.9 | 1.06 | inactive |
| RANGRF (RAN guanine nucleotide release factor) | 1 | 0.387 | 89.6 | 0.154 | inactive |
| RANGRF (RAN guanine nucleotide release factor) | 2 | 0.732 | 96.5 | 1.3 | inactive |
| RANGRF (RAN guanine nucleotide release factor) | 3 | 0.594 | 93.7 | 0.162 | inactive |
| SREBF1 (sterol regulatory element binding transcription factor 1) | 1 | 0.936 | 101 | 0.305 | inactive |
| SREBF1 (sterol regulatory element binding transcription factor 1) | 2 | 0.907 | 99.9 | 1.28 | inactive |
| SREBF1 (sterol regulatory element binding transcription factor 1) | 3 | 5.32 | 188 | 3.62 | active |
| TOP2A (DNA topoisomerase II alpha) | 1 | 0.834 | 98.5 | -0.128 | inactive |
| TOP2A (DNA topoisomerase II alpha) | 2 | 0.877 | 99.3 | 0.901 | inactive |
| TOP2A (DNA topoisomerase II alpha) | 3 | 0.82 | 98.2 | 1.23 | inactive |
| GTPBP1 (GTP binding protein 1) | 1 | -0.436 | 73.2 | -0.369 | inactive |
| GTPBP1 (GTP binding protein 1) | 2 | 0.897 | 99.7 | 0.468 | inactive |
| GTPBP1 (GTP binding protein 1) | 3 | 0.506 | 91.9 | -0.148 | inactive |
| VPS9D1 (VPS9 domain containing 1) | 1 | -0.601 | 69.9 | 0.27 | inactive |
| VPS9D1 (VPS9 domain containing 1) | 2 | 0.407 | 90 | 0.585 | inactive |
| VPS9D1 (VPS9 domain containing 1) | 3 | 0.388 | 89.6 | 0.307 | inactive |
| C9orf40 (chromosome 9 open reading frame 40) | 1 | -1.11 | 59.8 | -0.864 | inactive |
| C9orf40 (chromosome 9 open reading frame 40) | 2 | -0.318 | 75.6 | 0.0645 | inactive |
| C9orf40 (chromosome 9 open reading frame 40) | 3 | 0.722 | 96.3 | 0.297 | inactive |
| RGPD3 (RANBP2 like and GRIP domain containing 3) | 1 | 1.93 | 120 | 1.73 | inactive |
| RGPD3 (RANBP2 like and GRIP domain containing 3) | 2 | 0.0919 | 83.7 | 0.0267 | inactive |
| RGPD3 (RANBP2 like and GRIP domain containing 3) | 3 | -0.593 | 70.1 | -0.228 | inactive |
| ADAT2 (adenosine deaminase tRNA specific 2) | 1 | -0.0675 | 80.5 | -0.272 | inactive |
| ADAT2 (adenosine deaminase tRNA specific 2) | 2 | -0.865 | 64.7 | -0.514 | inactive |
| ADAT2 (adenosine deaminase tRNA specific 2) | 3 | -0.782 | 66.3 | 0.249 | inactive |
| BMP2KL (BMP2 inducible kinase like (pseudogene)) | 1 | 0.227 | 86.4 | 0.151 | inactive |
| BMP2KL (BMP2 inducible kinase like (pseudogene)) | 2 | 2.71 | 136 | 1.65 | inactive |
| BMP2KL (BMP2 inducible kinase like (pseudogene)) | 3 | 0.701 | 95.8 | 0.0933 | inactive |
| ZDHHC8BP (ZDHHC8B, pseudogene) | 1 | 3.61 | 154 | 4.1 | active |
| ZDHHC8BP (ZDHHC8B, pseudogene) | 2 | -1.09 | 60.3 | -0.557 | inactive |
| ZDHHC8BP (ZDHHC8B, pseudogene) | 3 | 0.313 | 88.1 | 0.526 | inactive |
| HMGB3P24 (high mobility group box 3 pseudogene 24) | 1 | 0.136 | 84.6 | 0.0695 | inactive |
| HMGB3P24 (high mobility group box 3 pseudogene 24) | 2 | -1.6 | 50.1 | -1.43 | inactive |
| HMGB3P24 (high mobility group box 3 pseudogene 24) | 3 | 1.37 | 109 | 1.98 | inactive |
| PPIAP8 (peptidylprolyl isomerase A pseudogene 8) | 1 | 1.97 | 121 | 1.48 | inactive |
| PPIAP8 (peptidylprolyl isomerase A pseudogene 8) | 2 | 1.9 | 120 | 1.62 | inactive |
| PPIAP8 (peptidylprolyl isomerase A pseudogene 8) | 3 | -0.667 | 68.6 | -0.372 | inactive |
| KNDC1 (kinase non-catalytic C-lobe domain containing 1) | 1 | 1.58 | 113 | 1.23 | inactive |
| KNDC1 (kinase non-catalytic C-lobe domain containing 1) | 2 | 0.142 | 84.7 | 0.0257 | inactive |
| KNDC1 (kinase non-catalytic C-lobe domain containing 1) | 3 | -2.63 | 29.5 | -2.34 | inactive |
| GNAQ (G protein subunit alpha q) | 1 | 0.0133 | 82.2 | 0.22 | inactive |
| GNAQ (G protein subunit alpha q) | 2 | 0.0138 | 82.2 | -0.0519 | inactive |
| GNAQ (G protein subunit alpha q) | 3 | 0.958 | 101 | 3.05 | inactive |
| CDK3 (cyclin dependent kinase 3) | 1 | 0.506 | 91.9 | 0.313 | inactive |
| CDK3 (cyclin dependent kinase 3) | 2 | -0.281 | 76.3 | 0.291 | inactive |
| CDK3 (cyclin dependent kinase 3) | 3 | 1.57 | 113 | 0.676 | inactive |
| TAGLN3 (transgelin 3) | 1 | 0.241 | 86.7 | 0.311 | inactive |
| TAGLN3 (transgelin 3) | 2 | 1.02 | 102 | 1.56 | inactive |
| TAGLN3 (transgelin 3) | 3 | -0.0996 | 79.9 | -0.897 | inactive |
| GPR20 (G protein-coupled receptor 20) | 1 | 1.3 | 108 | 1.3 | inactive |
| GPR20 (G protein-coupled receptor 20) | 2 | 0.0572 | 83 | 0.0775 | inactive |
| GPR20 (G protein-coupled receptor 20) | 3 | -0.07 | 80.5 | -0.42 | inactive |
